Assay results taken from publication PMC5903241 (British Journal of Clinical Pharmacology, 2018).

Legend:
clinical = settings: human, plasma, oral, 40 mg
[1] = coadministered with sacubitril/valsartan vs furosemide alone

- AUC(0-t) (clinical): 2460 ng·h/mL
- AUClast, geometric least squares mean (furosemide 40 mg single dose + sacubitril/valsartan 200 mg twice daily): 1707.22 h*ng ml^–1
- Tmax (furosemide 40 mg single dose + sacubitril/valsartan 200 mg twice daily, median [minimum–maximum]): 2.00 [0.50–4.20] h
- AUCinf, geometric least squares mean (furosemide 40 mg single dose alone, n = 25): 2552.95 (n = 25) h*ng ml^–1
- decrease of AUClast when coadministered with sacubitril/valsartan (vs furosemide alone): 31%
- decrease of Cmax when coadministered with sacubitril/valsartan (vs furosemide alone): 50%
- decrease of urinary excretion of furosemide (Ae0–24) [1]: 26%
SMILES: NS(=O)(=O)c1cc(C(=O)O)c(NCc2ccco2)cc1Cl [Furosemide, furosemide]
